# Source: PubChem BioAssay AID504805 (Drosophila RNAi Screening Center, 2011)
# Purpose: 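Knock-downs that cause poly(A) RNA to build up in the nucleus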 (primary screen)
# Cell system: Drosophila S2R+ cells
# Knock-down reagent: long dsRNA against Drosophila genes, 0.25 µg dsRNA per well
# Duration: 4 days
# Measurement: 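Microscope images of cells stained for poly(A) RNA with a fluorescent oligo-dT probe and for DNA, assessed visually, with a phenotype description given for each replicate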
# Only reagents picked out of a larger screen are listed. 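Phenotypes are words from visual inspection of images, not measured scores.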 Reagents against one gene are numbered here. A plus sign joins genes that one reagent is predicted to hit.
target gene,reagent,"phenotype, replicate 1","phenotype, replicate 2"
sns (GeneID 44097),1,poly(A) RNA held back in the nucleus,cells look to be dying
sns (GeneID 44097),2,poly(A) RNA held back in the nucleus,
Fhos (GeneID 39004),1,poly(A) RNA held back in the nucleus,
rost (GeneID 34222),1,poly(A) RNA held back in the nucleus,
rols (GeneID 39368),1,poly(A) RNA held back in the nucleus,
aurB (GeneID 34504),1,poly(A) RNA held back in the nucleus,
x16 (GeneID 33967),1,poly(A) RNA held back in the nucleus,
norpA (GeneID 31376),1,poly(A) RNA held back in the nucleus,
CG10479 (GeneID 38674),1,poly(A) RNA held back in the nucleus,
CG14441 (GeneID 31611),1,poly(A) RNA held back in the nucleus,
CG3726 (GeneID 31525),1,poly(A) RNA held back in the nucleus,
nab (GeneID 3346237),1,poly(A) RNA held back in the nucleus,
gt (GeneID 31227),1,poly(A) RNA held back in the nucleus,
fid (GeneID 43148),1,poly(A) RNA held back in the nucleus,
RpS8 (GeneID 43532),1,poly(A) RNA held back in the nucleus,
825-Oak + CG32214 + CG12519 + 1 more,1,poly(A) RNA held back in the nucleus,
GstD5 (GeneID 48338),1,poly(A) RNA held back in the nucleus,
Ran-like (GeneID 39666),1,poly(A) RNA held back in the nucleus,
Atx2 (GeneID 41883),1,poly(A) RNA held back in the nucleus,
tipE (GeneID 38504),1,poly(A) RNA held back in the nucleus,
l(2)05714 (GeneID 46066),1,poly(A) RNA held back in the nucleus,
CycD (GeneID 32551),1,poly(A) RNA held back in the nucleus,poly(A) RNA held back in the nucleus
Rm62 (GeneID 40739),1,poly(A) RNA held back in the nucleus,
CG15458 (GeneID 50124),1,poly(A) RNA held back in the nucleus,
Ten-a (GeneID 32183),1,poly(A) RNA held back in the nucleus,
Ten-a (GeneID 32183),2,poly(A) RNA held back in the nucleus,
CG11298 (GeneID 37553),1,poly(A) RNA held back in the nucleus,
Paf-AHalpha (GeneID 32529),1,poly(A) RNA held back in the nucleus,
poe (GeneID 46243),1,poly(A) RNA held back in the nucleus,
CG8833 (GeneID 39535),1,poly(A) RNA held back in the nucleus,
CG15254 (GeneID 34915),1,poly(A) RNA held back in the nucleus,
eIF4E3 (GeneID 38923),1,poly(A) RNA held back in the nucleus,
Tpst (GeneID 32312),1,poly(A) RNA held back in the nucleus,
yem (GeneID 43439),1,poly(A) RNA held back in the nucleus,
Nadk1b (GeneID 36507),1,poly(A) RNA held back in the nucleus,
CG7800 (GeneID 40963),1,poly(A) RNA held back in the nucleus,
CG34280 (GeneID 5740878),1,poly(A) RNA held back in the nucleus,
CG10352 (GeneID 32147),1,poly(A) RNA held back in the nucleus,
dpr12 (GeneID 50320),1,poly(A) RNA held back in the nucleus,
twf (GeneID 41719),1,poly(A) RNA held back in the nucleus,
CG12860 (GeneID 36629),1,poly(A) RNA held back in the nucleus,
betaNACtes1 (GeneID 32360),1,poly(A) RNA held back in the nucleus,
Fbp2 (GeneID 34259),1,poly(A) RNA held back in the nucleus,

4 neighbouring reagents from above, quoted:
target gene,reagent,"phenotype, replicate 1","phenotype, replicate 2"
CG10479 (GeneID 38674),1,poly(A) RNA held back in the nucleus,
CG14441 (GeneID 31611),1,poly(A) RNA held back in the nucleus,
CG3726 (GeneID 31525),1,poly(A) RNA held back in the nucleus,
nab (GeneID 3346237),1,poly(A) RNA held back in the nucleus,
